Drawing on PMC7265490, this text covers binding for three substances.

Amino acid sequences for entries named in this document (tags omitted). A change or cut given only in a name is not applied to a line headed by its entry.
UniProt Q5TAX3: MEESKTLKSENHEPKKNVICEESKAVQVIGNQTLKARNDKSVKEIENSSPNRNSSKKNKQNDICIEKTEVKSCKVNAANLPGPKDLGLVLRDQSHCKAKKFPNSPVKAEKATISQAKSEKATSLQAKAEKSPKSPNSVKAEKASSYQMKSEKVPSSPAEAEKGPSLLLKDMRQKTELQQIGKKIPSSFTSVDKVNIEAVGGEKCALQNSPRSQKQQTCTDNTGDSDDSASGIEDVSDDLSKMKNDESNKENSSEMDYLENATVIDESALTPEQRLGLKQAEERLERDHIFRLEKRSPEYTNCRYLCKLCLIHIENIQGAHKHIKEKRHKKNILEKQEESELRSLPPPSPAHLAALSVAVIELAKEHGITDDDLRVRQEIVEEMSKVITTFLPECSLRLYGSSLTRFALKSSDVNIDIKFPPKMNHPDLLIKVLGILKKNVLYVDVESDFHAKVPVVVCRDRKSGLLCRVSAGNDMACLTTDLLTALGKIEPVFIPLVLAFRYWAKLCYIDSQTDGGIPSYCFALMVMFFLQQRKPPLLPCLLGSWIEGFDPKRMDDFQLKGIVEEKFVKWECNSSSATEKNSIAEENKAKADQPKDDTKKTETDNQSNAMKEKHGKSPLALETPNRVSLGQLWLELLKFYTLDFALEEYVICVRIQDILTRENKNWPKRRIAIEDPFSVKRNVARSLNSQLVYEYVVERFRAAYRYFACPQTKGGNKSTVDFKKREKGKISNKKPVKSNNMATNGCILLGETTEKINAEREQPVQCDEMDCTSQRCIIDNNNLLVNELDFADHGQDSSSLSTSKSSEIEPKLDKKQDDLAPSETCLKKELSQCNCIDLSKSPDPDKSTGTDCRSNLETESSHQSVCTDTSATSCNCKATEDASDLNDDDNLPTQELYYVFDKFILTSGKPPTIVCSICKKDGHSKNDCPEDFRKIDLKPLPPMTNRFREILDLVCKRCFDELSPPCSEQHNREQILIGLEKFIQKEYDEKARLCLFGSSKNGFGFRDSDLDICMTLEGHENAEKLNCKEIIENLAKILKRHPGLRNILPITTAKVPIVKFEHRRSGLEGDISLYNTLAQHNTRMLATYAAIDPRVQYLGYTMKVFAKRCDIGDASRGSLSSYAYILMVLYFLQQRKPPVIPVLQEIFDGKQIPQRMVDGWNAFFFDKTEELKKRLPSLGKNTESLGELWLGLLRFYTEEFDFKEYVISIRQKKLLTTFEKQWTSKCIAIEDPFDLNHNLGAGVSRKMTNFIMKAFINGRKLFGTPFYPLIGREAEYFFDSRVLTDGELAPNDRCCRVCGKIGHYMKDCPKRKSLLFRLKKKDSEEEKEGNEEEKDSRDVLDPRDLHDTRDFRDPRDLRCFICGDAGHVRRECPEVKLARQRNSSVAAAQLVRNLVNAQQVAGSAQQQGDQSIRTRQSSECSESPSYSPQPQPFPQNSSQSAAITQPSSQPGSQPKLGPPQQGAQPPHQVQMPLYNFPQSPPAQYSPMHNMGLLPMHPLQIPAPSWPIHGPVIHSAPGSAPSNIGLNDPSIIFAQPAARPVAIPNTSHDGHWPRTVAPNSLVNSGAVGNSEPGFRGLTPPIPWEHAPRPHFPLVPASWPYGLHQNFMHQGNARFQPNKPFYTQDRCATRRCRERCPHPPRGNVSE
UniProt Q9UKV8: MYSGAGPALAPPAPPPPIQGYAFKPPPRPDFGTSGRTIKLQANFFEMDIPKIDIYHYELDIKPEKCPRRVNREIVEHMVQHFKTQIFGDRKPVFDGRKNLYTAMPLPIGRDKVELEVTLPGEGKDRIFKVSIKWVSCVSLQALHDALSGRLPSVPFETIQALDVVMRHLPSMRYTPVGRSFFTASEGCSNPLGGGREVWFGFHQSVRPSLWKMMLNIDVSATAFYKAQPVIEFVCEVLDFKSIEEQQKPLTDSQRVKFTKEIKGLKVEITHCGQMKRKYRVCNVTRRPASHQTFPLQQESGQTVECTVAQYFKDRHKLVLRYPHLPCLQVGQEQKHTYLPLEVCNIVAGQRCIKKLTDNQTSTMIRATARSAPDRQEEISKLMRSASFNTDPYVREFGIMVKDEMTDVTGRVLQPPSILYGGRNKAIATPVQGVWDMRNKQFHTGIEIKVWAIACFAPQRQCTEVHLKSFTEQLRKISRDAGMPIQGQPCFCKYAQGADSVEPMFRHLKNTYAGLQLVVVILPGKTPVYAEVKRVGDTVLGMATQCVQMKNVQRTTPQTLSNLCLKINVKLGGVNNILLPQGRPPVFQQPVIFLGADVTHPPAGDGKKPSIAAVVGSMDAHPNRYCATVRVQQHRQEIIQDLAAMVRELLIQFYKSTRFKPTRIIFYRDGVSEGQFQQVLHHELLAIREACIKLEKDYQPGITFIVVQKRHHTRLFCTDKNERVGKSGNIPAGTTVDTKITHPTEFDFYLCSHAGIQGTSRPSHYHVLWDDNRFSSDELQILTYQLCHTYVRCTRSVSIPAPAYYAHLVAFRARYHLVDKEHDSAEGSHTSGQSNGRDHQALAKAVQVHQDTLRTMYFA

For assay [1], the target named is T1, endogenous TUT7 (ZCCHC6/TENT3B/PAPD6) (human (endogenous in HEK293T)) (UniProt Q5VYS8).
T1 sequence: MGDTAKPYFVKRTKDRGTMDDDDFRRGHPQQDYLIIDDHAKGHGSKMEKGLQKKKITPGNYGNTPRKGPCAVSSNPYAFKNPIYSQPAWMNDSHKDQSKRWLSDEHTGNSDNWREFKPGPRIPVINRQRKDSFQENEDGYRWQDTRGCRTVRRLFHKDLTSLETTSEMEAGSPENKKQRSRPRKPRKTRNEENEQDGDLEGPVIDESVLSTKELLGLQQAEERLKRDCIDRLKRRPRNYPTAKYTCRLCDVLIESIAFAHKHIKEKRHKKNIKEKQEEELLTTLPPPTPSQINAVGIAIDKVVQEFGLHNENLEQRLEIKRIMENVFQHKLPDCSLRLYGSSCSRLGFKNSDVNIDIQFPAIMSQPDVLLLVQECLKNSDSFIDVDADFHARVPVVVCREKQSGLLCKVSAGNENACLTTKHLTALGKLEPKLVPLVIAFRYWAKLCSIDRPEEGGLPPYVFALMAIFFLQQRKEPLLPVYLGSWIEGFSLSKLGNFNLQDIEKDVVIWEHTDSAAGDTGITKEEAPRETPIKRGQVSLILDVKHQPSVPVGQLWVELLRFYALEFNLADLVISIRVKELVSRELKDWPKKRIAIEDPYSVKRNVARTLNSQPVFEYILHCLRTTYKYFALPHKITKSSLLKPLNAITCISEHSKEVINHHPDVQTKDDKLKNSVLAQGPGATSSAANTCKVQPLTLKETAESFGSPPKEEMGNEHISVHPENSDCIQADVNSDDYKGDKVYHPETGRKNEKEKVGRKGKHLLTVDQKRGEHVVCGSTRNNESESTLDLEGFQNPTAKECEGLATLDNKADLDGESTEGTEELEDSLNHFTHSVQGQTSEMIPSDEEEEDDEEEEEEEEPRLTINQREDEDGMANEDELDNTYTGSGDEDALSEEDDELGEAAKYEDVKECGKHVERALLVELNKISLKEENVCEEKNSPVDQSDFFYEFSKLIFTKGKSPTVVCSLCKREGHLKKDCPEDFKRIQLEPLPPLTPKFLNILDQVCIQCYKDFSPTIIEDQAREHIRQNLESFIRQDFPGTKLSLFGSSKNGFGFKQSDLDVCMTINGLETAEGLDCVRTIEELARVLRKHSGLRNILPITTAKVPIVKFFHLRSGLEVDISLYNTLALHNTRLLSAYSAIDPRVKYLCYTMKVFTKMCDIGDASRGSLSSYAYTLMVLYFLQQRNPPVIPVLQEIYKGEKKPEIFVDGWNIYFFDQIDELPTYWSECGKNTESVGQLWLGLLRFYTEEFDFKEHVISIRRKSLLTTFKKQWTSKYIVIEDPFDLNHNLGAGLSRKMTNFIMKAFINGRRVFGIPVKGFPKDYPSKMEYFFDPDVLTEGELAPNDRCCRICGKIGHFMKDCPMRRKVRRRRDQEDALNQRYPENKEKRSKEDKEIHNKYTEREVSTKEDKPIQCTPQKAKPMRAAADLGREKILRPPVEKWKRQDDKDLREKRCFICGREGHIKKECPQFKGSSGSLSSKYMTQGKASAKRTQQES
Nature of the assay: co-IP; endogenous TUT4 or TUT7 immunoprecipitated from HEK293T cells with anti-ZCCHC11 or anti-ZCCHC6, with or without RNase A/T1; Western blot for AGO1, AGO2, TUT4 and TUT7. A general note: Immunoblotting shows a protein as a band on a membrane.

For assay [2], the target named is endogenous TUT4 (ZCCHC11/TENT3A/PAPD3) (human (endogenous in HEK293T)) (UniProt Q5TAX3). The assay is described as above.
In assay [3] the target is FLAG-tagged AGO2-WT (wild-type Argonaute 2) (UniProt Q9UKV8). Nature of the assay: co-IP; FLAG-tagged AGO2 constructs or GFP transfected into HEK293T; lysis in modRIPA buffer 48 h after transfection; anti-FLAG M2 magnetic beads, 4 °C overnight; washed five times with TBS; beads with or without RNase A/T1 (20 min, room temperature); Western blot for TUT4, TUT7 and AGO2.
Assay [4] addresses FLAG-tagged AGO2-F2L3 (AGO2 PAZ mutant, F294A and L339A) (UniProt Q9UKV8). The description is as above.

Results are given in words; binding and its absence hold for the method and conditions named. Binding seen in cells or lysates may run through a third protein. Some binding calls cover weakened binding; strength is not graded here.

In the case of “endogenous AGO1 (from UniProt Q9UL18 1-857)”, the binding result was “binds” in assay [1] and “no binding” in assay [2].
As for “endogenous AGO2 (from UniProt Q9UKV8 1-859)”, the binding entry is “binds” in assay [1] and “no binding” in assay [2].
Consider “endogenous TUT4 (ZCCHC11/TENT3A/PAPD3) (from UniProt Q5TAX3 1-1644) (enzyme)”, for which the binding entry in assay [3] and in assay [4] was “no binding” throughout.
